Assay results reported in US10030050 (dated 2018).
Ends that are not written are not given here.

Experiment: general procedure: Fmoc solid-phase peptide synthesis; chloro trityl chloride resin (CTL resin, Nova Biochem Cat No. 01-64-0021); HoBt/Bop/DIEA
Conditions: whole synthesis; for crude yield: scale of the general procedure 700 mg resin

Substance | crude yield [%] | crude mass [g]
ACIHTLSLLC (cysteine pairing not given here) | 83.2 | 
ITLQEIIRT | 86.4 | 
SPVEFLR | 88.8 | 0.80
